From the supplement of paper PMC7024190 come the findings set out here.

Where a name gives a salt, the structure may show the parent alone. The list shows a part of the results. This data set is noisy: repeats of one test often differ as much as different tests do.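 Human embryonic kidney cells were transiently transfected with a plasmid bearing a Renilla luciferase gene under the HSV-TK promoter. This first-round screen tests roughly ten thousand compounds for ones that increase reporter output.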

This test concerns HEK 293FT. The test is described as follows: log relative Renilla luciferase luminescence (reporter expression vs reference, reference not stated) (log (base not stated)); higher = higher recombinant reporter expression. The conditions noted are these: 10 µM; time after transfection 48 h.
With `NCc1ccccc1CC(=O)N[C@@H]1C(=O)N2C(C(=O)O)=C(CSc3nnnn3CC(=O)O)CS[C@H]12` [Ceforanide], the log was determined as 0.02. With `C[N+]1(C)CCC(OC(=O)C(O)(c2ccccc2)C2CCCC2)C1` (centres undefined) [Glycopyrrolate] the figure was -0.0555; with `N#Cc1ccc(C(c2ccc(C#N)cc2)n2cncn2)cc1` [Letrozole], 0.0444. The same measure for `Clc1ccc(CCC(Cn2ccnc2)Sc2c(Cl)cccc2Cl)cc1` (centres undefined) [Butoconazole nitrate]: -0.0974. The same measure for `O=C(O)Cc1ccc(-c2ccccc2)cc1` [Felbinac]: 0.0262. For `C[C@@H]1C[C@H]2[C@@H]3C[C@H](F)C4=CC(=O)C=C[C@]4(C)[C@@]3(F)[C@@H](O)C[C@]2(C)[C@@]1(O)C(=O)CO` [Flumethasone], the log was -0.0157. The same measure for `O=C(O)c1cn(-c2ccc(F)cc2)c2cc(N3CCNCC3)c(F)cc2c1=O` [Sarafloxacin]: 0.104.

Regarding `O=C1c2c(O)cccc2Cc2cccc(O)c21` [Anthralin], the log came out at 0.0344. With `COc1cc(C(=O)OCCCN2CCCN(CCCOC(=O)c3cc(OC)c(OC)c(OC)c3)CC2)cc(OC)c1OC` [Dilazep dihydrochloride] the figure was 0.148; with `CN(C)CCCN1c2ccccc2Sc2ccc(C(F)(F)F)cc21` [Triflupromazine hydrochloride], 0.102. The same measure for `CC(N/C(=N\C#N)Nc1ccncc1)C(C)(C)C` (centres undefined) [Pinacidil]: 0.163.

With `CCCCC(O)c1ccccc1` (centres undefined) [Fenipentol], the log is -0.0739. The same measure for `CCN(CC)CCOC(=O)C1(C2CCCCC2)CCCCC1` [Dicyclomine hydrochloride]: 0.0657.

On to `C=CC(N)CCC(=O)O` (centres undefined) [Vigabatrin], for which the log was -0.0288. With `NS(=O)(=O)c1cc(C2(O)NC(=O)c3ccccc32)ccc1Cl` (centres undefined) [Chlorthalidone] the figure was -0.416; with `CCN[C@H]1CN(CCCOC)S(=O)(=O)c2sc(S(N)(=O)=O)cc21` [Brinzolamide], 0.115; with `Cc1ncc(C[n+]2csc(CCO)c2C)c(N)n1` [Thiamine hydrochloride], 0.205. Turning to `CC(C)c1c(C(=O)Nc2ccccc2)c(-c2ccccc2)c(-c2ccc(F)cc2)n1CC[C@@H](O)C[C@@H](O)CC(=O)O` [Atorvastatin], the log worked out at 0.0657.

For the compound `CC(=O)OCC(=O)[C@@]1(O)CC[C@H]2[C@@H]3CCC4=CC(=O)CC[C@]4(C)[C@H]3[C@@H](O)C[C@@]21C` [Cortisol acetate], the log was -0.0974. The same measure for `CC[N+](C)(CC)CCOC(=O)C1c2ccccc2Oc2ccccc21` [Methantheline bromide]: 0.0554; for `CCCCN(CCCC)CCCOC(=O)c1ccc(N)cc1` [Butacaine]: -0.222.

On to `COC(=O)Nc1nc2cc(C(=O)c3cccs3)ccc2[nH]1` [Nocodazole], for which the log was -0.106. With `Cc1ccc(C(=O)c2ccc(CC(=O)O)n2C)cc1` [Tolmetin sodium salt dihydrate] the figure was 0.0467.

As to `CC(=O)OCC(=O)[C@@]1(O)CC[C@H]2[C@@H]3CCC4=CC(=O)CC[C@]4(C)[C@@]3(F)[C@@H](O)C[C@@]21C` [Fludrocortisone acetate], the log was -0.271. The same measure for `Cc1cn[nH]c1` [Fomepizole]: 0.0437; for `CCCOc1cc(N)ccc1C(=O)OCCN(CC)CC` [Propoxycaine hydrochloride]: 0.0437. With `OC(Cn1cncn1)(Cn1cncn1)c1ccc(F)cc1F` [Fluconazole] the figure was -0.0312; with `CC[N+](C)(C)c1cccc(O)c1` [Edrophonium chloride], 0.00301; with `CN1CCC(=C2c3ccccc3C=Cc3ccccc32)CC1` [Cyproheptadine hydrochloride], 0.0795.

For `N=C(N)NC(=N)NCCc1ccccc1` [Phenformin hydrochloride], the log was -0.0328. With `CC(C)(C)NC[C@@H](O)COc1cccc2c1CCCC2=O` [(+) -Levobunolol hydrochloride] the figure was 0.0544; with `CO[C@H]1/C=C/O[C@@]2(C)Oc3c(C)c(O)c4c(O)c(c(/C=N/N5CCN(C6CCCC6)CC5)c(O)c4c3C2=O)NC(=O)/C(C)=C\C=C\[C@H](C)[C@H](O)[C@@H](C)[C@@H](O)[C@@H](C)[C@H](OC(C)=O)[C@@H]1C` [Rifapentine], 0.0241. The same measure for `C[C@H]1O[C@H](O[C@H]2[C@H](O)[C@@H](O)[C@@H](O[C@H]3[C@H](O)[C@@H](O)C(O)O[C@@H]3CO)O[C@@H]2CO)[C@H](O)[C@@H](O)[C@@H]1N[C@H]1C=C(CO)[C@@H](O)[C@H](O)[C@H]1O` (some centres undefined) [Acarbose]: -0.0311; for `NNCCc1ccccc1` [Phenelzine sulfate]: 0.0849; for `CCCc1cc(C(N)=S)ccn1` [Prothionamide]: -0.126. Consider `CC(=O)S[C@@H]1CC2=CC(=O)CC[C@]2(C)[C@H]2CC[C@@]3(C)[C@@H](CC[C@@]34CCC(=O)O4)[C@H]12` [Spironolactone], for which the log was -0.00861. The same measure for `CC(Cc1cccc(C(F)(F)F)c1)NCCOC(=O)c1ccccc1` (centres undefined) [Benfluorex hydrochloride]: 0.0863. The same measure for `CNc1ncnc2c1ncn2[C@@H]1O[C@H](CO)[C@@H](O)[C@H]1O` [N6-methyladenosine]: -0.0154; for `OCC(O)CN1CCN(c2ccccc2)CC1` (racemic) [Dropropizine (R,S)]: -0.0265.

As for `CC(C)(C)C(=O)OCOC(=O)[C@@H]1N2C(=O)[C@@H](/N=C/N3CCCCCC3)[C@H]2SC1(C)C` [Pivmecillinam hydrochloride], the log amounted to 0.00952. The same measure for `c1ccc2c(c1)CCCC2C1=NCCN1` (centres undefined) [Tetrahydrozoline hydrochloride]: 0.124; for `C[C@@H](O)[C@H]1C(=O)N2C(C(=O)O)=C(SCCNC=N)C[C@H]12` [Imipenem]: -0.0407; for `CCCCCN(C)CCC(O)(P(=O)(O)O)P(=O)(O)O` [Ibandronate sodium]: 0.177. With `O=C1NCCN1c1ncc([N+](=O)[O-])s1` [Niridazole] the figure was 0.0157. The same measure for `C1N2CN3CN1CN(C2)C3` [Methenamine]: 0.0157; for `C=C(CC)C(=O)c1ccc(OCC(=O)O)c(Cl)c1Cl` [Ethacrynic acid]: 0.0932; for `Nc1ccc(S(=O)(=O)NC(=O)c2ccccc2)cc1` [Sulfabenzamide]: 0.212. On to `CS(=O)(=O)c1ccc([C@@H](O)[C@@H](CF)NC(=O)C(Cl)Cl)cc1` [Florfenicol], for which the log came out at 0.0842.

With `CCN(CC)CCCC(C)Nc1ccnc2cc(Cl)ccc12` (centres undefined) [Chloroquine diphosphate], the log worked out at 0.148. With `CC(C(=O)O)c1cccc(Oc2ccccc2)c1` (centres undefined) [Fenoprofen calcium salt dihydrate] the figure was 0.0196. The same measure for `CCCc1ncc(C[n+]2ccccc2C)c(N)n1` [Amprolium hydrochloride]: 0.0914; for `CC(=O)OCC(=O)NCCCOc1cccc(CN2CCCCC2)c1` [Roxatidine Acetate HCl]: -0.404; for `CCn1cc(C(=O)O)c(=O)c2cc(F)c(N3CCNCC3)nc21` [Enoxacin]: 0.122. For the compound `c1ccc(CC2=NCCN2)cc1` [Tolazoline hydrochloride], the log was determined as 0.15. The same measure for `CC(C)(Oc1ccc(CCNC(=O)c2ccc(Cl)cc2)cc1)C(=O)O` [Bezafibrate]: 0.0554.

Consider `OCCN1CCN(CCCN2c3ccccc3Sc3ccc(C(F)(F)F)cc32)CC1` [Fluphenazine dihydrochloride], for which the log came out at 0.159. Take `O=C(O)CCc1nc(-c2ccccc2)c(-c2ccccc2)o1` [Oxaprozin]: the log is 0.0612. On to `Clc1ccc2c(c1)C(N1CCNCC1)=Nc1ccccc1O2` [Amoxapine], for which the log was -1.58.

With `O=C1c2ccccc2C(=O)C1c1ccccc1` [Phenindione], the log turned out to be 0.0676. With `CC[C@H]1OC(=O)[C@H](C)[C@@H](O[C@H]2C[C@@](C)(OC)[C@@H](O)[C@H](C)O2)[C@H](C)[C@@H](O[C@@H]2O[C@H](C)C[C@H](N(C)C)[C@H]2O)[C@](C)(O)C[C@@H](C)C(=O)[C@H](C)[C@@H](O)[C@]1(C)O` [Erythromycin] the figure was 0.0739.

For `CO[C@H]1/C=C/O[C@@]2(C)Oc3c(C)c(O)c4c(O)c(c(/C=N/N5CCN(C)CC5)c(O)c4c3C2=O)NC(=O)/C(C)=C\C=C\[C@H](C)[C@H](O)[C@@H](C)[C@@H](O)[C@@H](C)[C@H](OC(C)=O)[C@@H]1C` [Rifampicin], the log came out at 0.174. The same measure for `Cc1c(Cl)cccc1Nc1ccccc1C(=O)O` [Tolfenamic acid]: 0.121.

With `CCCSc1ccc2[nH]c(NC(=O)OC)nc2c1` [Albendazole], the log is -0.22.

On to `Cc1ccc(N(CC2=NCCN2)c2cccc(O)c2)cc1` [Phentolamine hydrochloride], for which the log was determined as 0.0641. With `CCc1ccc(CCOc2ccc(CC3SC(=O)NC3=O)cc2)nc1` (centres undefined) [Pioglitazone] the figure was 0.00465; with `CN(C)[C@@H]1C(O)=C(C(N)=O)C(=O)[C@@]2(O)C(O)=C3C(=O)c4c(O)cccc4[C@@](C)(O)[C@H]3C[C@@H]12` [Tetracycline hydrochloride], 0.0795; with `COCCCC/C(=N\OCCN)c1ccc(C(F)(F)F)cc1` [Fluvoxamine maleate], 0.0806.

Consider `C[C@]12CCC(=O)C=C1CC[C@@H]1[C@@H]2C(=O)C[C@@]2(C)[C@H]1CC[C@]2(O)C(=O)CO` [Cortisone], for which the log was determined as 0.0283. For the compound `CCOC(=O)N1CCC(=C2c3ccc(Cl)cc3CCc3cccnc32)CC1` [Loratadine], the log amounted to 0.0842. With `COc1ccc(CC(C)NCC(O)c2ccc(O)c(NC=O)c2)cc1` (centres undefined) [Formoterol fumarate] the figure was -0.00598; with `CN1CCN(CCCN2c3ccccc3Sc3ccc(S(=O)(=O)N(C)C)cc32)CC1` [Thioproperazine dimesylate], 0.124. As to `O=C(O)Cc1ccccc1Nc1c(Cl)cccc1Cl` [Diclofenac sodium], the log is -0.111.

Take `C[C@@H](c1ncncc1F)[C@](O)(Cn1cncn1)c1ccc(F)cc1F` [Voriconazole]: the log amounted to 0.00628. The same measure for `CC(=O)Oc1cc(C(F)(F)F)ccc1C(=O)O` [Triflusal]: 0.14.
